Literature values in patent US5932559A, “Treatment of hyperandrogenic conditions” (Merck & Co., Inc., priority 1996, dated 1999).
At least one read-out could not be matched to a standard name with certainty.

System: human skin (type 1) isozyme
Details: Tian et al.; cited from earlier work

CC(C)(C)NC(=O)[C@H]1CC[C@H]2[C@@H]3CC[C@H]4NC(=O)C=C[C@]4(C)[C@H]3CC[C@]12C [finasteride, 17β-(N-tert-butylcarbamoyl)-3-oxo-4-aza-5α-androst-1-ene-3-one]
second-order rate constant for formation of the complex with type 1 isozyme: 4000 M⁻¹ s⁻¹
